Experimental data as given in paper PMC9794062.
Results are given in words; binding and its absence hold for the method and conditions named. Binding seen in cells or lysates may run through a third protein. Some entries that bind do so weakly or less than the wild type. For some of these results: Sequences can lack the tags named with a protein. Blank lines part the entries; values can stand above or below the molecule they belong to.

By UniProt entry, the sequences of proteins in these tests, tags left out. Where a name states a change or a piece, a line headed by the entry shows the natural chain unless it says otherwise. Chains listed by the source or under a name are the forms on record and can include a tag or linker. Residues count along the entry.
UniProt P09874: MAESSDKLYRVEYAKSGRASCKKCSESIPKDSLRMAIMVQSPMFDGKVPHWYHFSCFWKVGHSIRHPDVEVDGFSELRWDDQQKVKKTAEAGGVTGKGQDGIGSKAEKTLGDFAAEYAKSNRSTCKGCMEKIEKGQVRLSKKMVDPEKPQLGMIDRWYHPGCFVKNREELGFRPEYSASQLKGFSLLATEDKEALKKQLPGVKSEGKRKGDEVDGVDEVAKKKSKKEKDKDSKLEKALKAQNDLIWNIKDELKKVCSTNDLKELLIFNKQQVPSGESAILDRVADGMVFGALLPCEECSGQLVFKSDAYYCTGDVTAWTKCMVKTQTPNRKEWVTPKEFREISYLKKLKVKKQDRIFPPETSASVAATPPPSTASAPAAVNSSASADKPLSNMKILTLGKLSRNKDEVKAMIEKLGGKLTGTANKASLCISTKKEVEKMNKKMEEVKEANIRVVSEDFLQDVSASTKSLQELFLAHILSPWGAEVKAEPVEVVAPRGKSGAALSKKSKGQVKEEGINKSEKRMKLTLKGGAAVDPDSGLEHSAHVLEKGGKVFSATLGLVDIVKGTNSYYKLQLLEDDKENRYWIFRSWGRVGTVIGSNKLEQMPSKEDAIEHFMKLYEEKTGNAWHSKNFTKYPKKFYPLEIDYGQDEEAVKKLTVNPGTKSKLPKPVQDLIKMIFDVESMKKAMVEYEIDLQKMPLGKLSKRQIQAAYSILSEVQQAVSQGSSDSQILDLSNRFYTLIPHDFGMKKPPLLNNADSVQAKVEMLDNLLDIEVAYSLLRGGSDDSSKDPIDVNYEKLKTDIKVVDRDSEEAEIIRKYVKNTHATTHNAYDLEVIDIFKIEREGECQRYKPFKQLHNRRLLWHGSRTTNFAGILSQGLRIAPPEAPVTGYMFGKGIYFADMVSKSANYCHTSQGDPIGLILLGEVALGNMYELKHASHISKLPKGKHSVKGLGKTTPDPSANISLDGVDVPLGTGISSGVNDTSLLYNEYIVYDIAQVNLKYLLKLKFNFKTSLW
GFP-tagged PARP1 (1–374): residues 1-374 of P09874
GFP-tagged PARP1 (356–532): residues 356-532 of P09874
GFP-tagged PARP1 (529–1014): residues 529-1014 of P09874

Key:
[1] = biological target: poly (ADP-ribose) polymerase I (PARP1), endogenous (human (endogenous in HEK293T and T24)) (UniProt P09874); assay: proximity ligation; PLA in T24 cells with antibodies against PARP1 and each translocase; mock, 0.01% MMS for 1 hour, or UV irradiation
[2] = biological target: GFP-tagged PARP1 (1–374) (UniProt P09874); assay: co-IP; HEK293T cells transfected with GFP-PARP1 constructs; immunoprecipitated with a GFP antibody followed by protein G-agarose, immunoblotting for the translocases
[3] = biological target: GFP-tagged PARP1 (356–532) (UniProt P09874); assay: as above
[4] = biological target: GFP-tagged PARP1 (529–1014) (UniProt P09874); assay: as above
[5] = biological target: poly (ADP-ribose) polymerase I (PARP1), endogenous (human (endogenous in HEK293T and T24)) (UniProt P09874); assay: co-IP; endogenous PARP1 immunoprecipitated with an anti-PARP1 antibody, translocases detected by immunoblotting; cells mock-treated or 0.01% MMS for 1 hour; lysates treated with 100 μg/ml DNase I or 50 μg/ml EtBr as indicated
[6] = biological target: T1, FLAG-tagged SHPRH (1090–1683) (UniProt Q149N8); assay: co-IP; HEK293T cells transfected with FLAG-SHPRH constructs; immunoprecipitated with anti-FLAG sepharose beads, immunoblotting for PARP1
T1 sequence: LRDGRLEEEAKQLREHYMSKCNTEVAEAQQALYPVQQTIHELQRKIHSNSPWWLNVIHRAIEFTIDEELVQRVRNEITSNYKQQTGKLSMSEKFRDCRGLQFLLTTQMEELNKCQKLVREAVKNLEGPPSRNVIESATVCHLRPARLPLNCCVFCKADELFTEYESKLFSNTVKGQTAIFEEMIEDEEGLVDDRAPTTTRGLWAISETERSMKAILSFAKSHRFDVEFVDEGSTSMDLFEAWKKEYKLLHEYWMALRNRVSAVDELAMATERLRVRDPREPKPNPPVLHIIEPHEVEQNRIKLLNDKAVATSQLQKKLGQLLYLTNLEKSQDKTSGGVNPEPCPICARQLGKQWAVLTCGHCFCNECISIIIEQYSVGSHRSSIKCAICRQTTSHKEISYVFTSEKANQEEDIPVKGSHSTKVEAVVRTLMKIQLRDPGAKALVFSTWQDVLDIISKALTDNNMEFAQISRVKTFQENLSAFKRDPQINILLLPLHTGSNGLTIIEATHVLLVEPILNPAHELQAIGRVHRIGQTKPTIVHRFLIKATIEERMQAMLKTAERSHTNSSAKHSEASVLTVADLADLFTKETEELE

[7] = biological target: T2, FLAG-tagged SHPRH (1–605) (UniProt Q149N8); assay: as above
T2 sequence: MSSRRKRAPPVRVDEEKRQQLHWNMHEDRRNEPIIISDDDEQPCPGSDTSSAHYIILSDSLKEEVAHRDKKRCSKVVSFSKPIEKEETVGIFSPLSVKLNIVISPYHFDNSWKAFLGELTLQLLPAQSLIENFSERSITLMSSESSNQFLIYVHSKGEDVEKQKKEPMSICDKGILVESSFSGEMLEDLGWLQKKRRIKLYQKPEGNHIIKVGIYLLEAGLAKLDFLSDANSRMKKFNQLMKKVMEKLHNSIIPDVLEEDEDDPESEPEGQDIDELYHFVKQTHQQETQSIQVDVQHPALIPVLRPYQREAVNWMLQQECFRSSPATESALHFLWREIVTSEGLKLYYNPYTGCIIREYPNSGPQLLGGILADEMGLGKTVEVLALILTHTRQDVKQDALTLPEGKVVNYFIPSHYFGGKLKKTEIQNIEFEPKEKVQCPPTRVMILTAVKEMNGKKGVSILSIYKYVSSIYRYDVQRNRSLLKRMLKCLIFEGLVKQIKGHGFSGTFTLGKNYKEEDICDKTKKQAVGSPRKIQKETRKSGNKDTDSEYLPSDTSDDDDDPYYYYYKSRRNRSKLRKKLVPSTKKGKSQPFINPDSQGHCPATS

[8] = biological target: T3, FLAG-tagged SHPRH (606–1090) (UniProt Q149N8); assay: as above
T3 sequence: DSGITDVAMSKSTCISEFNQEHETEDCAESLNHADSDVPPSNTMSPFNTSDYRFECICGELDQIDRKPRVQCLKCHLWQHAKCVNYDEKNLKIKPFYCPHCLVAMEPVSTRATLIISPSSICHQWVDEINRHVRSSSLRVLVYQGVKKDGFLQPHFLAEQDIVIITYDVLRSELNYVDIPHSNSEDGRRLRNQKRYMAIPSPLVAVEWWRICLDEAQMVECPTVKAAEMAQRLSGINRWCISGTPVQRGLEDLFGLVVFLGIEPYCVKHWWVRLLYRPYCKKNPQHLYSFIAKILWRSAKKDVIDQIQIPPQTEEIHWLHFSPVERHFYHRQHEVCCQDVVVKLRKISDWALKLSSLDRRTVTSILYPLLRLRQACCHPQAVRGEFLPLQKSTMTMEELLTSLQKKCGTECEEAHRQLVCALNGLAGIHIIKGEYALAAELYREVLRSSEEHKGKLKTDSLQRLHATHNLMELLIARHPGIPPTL

[9] = biological target: FLAG-tagged SHPRH (UniProt Q149N8); assay: as above

binding [1]: binds | binding [2]: binds | binding [3]: binds | binding [4]: binds weakly | binding [5]: binds
Molecule: SNF2 histone linker PHD RING helicase (SHPRH), endogenous (from UniProt Q149N8 1-1683)

binding [6]: binds weakly | binding [7]: binds | binding [8]: binds | binding [9]: binds
Molecule: poly (ADP-ribose) polymerase I (PARP1), endogenous (from UniProt P09874 1-1014)

binding [1]: binds | binding [2]: binds | binding [3]: binds | binding [4]: binds weakly | binding [5]: binds
B1: SWI/SNF-related, matrix-associated, actin-dependent regulator of chromatin, subfamily A-like 1 (SMARCAL1), endogenous (protein, UniProt Q9NZC9 1-954)
chain: MSLPLTEEQRKKIEENRQKALARRAEKLLAEQHQRTSSGTSIAGNPFQAKQGPSQNFPRESCKPVSHGVIFKQQNLSSSSNADQRPHDSHSFQAKGIWKKPEEMPTACPGHSPRSQMALTGISPPLAQSPPEVPKQQLLSYELGQGHAQASPEIRFTPFANPTHKPLAKPKSSQETPAHSSGQPPRDAKLEAKTAKASPSGQNISYIHSSSESVTPRTEGRLQQKSGSSVQKGVNSQKGKCVRNGDRFQVLIGYNAELIAVFKTLPSKNYDPDTKTWNFSMNDYSALMKAAQSLPTVNLQPLEWAYGSSESPSTSSEGQAGLPSAPSLSFVKGRCMLISRAYFEADISYSQDLIALFKQMDSRRYDVKTRKWSFLLEEHSKLIAKVRCLPQVQLDPLPTTLTLAFASQLKKTSLSLTPDVPEADLSEVDPKLVSNLMPFQRAGVNFAIAKGGRLLLADDMGLGKTIQAICIAAFYRKEWPLLVVVPSSVRFTWEQAFLRWLPSLSPDCINVVVTGKDRLTAGLINIVSFDLLSKLEKQLKTPFKVVIIDESHFLKNSRTARCRAAMPVLKVAKRVILLSGTPAMSRPAELYTQIIAVKPTFFPQFHAFGLRYCDAKRMPWGWDYSGSSNLGELKLLLEEAVMLRRLKSDVLSQLPAKQRKIVVIAPGRINARTRAALDAAAKEMTTKDKTKQQQKDALILFFNRTAEAKIPSVIEYILDLLESGREKFLVFAHHKVVLDAITQELERKHVQHIRIDGSTSSAEREDLCQQFQLSERHAVAVLSITAANMGLTFSSADLVVFAELFWNPGVLIQAEDRVHRIGQTSSVGIHYLVAKGTADDYLWPLIQEKIKVLAEAGLSETNFSEMTESTDYLYKDPKQQKIYDLFQKSFEKEGSDMELLEAAESFDPGSASGTSGSSSQNMGDTLDESSLTASPQKKRRFEFFDNWDSFTSPL

binding [1]: binds | binding [2]: binds weakly | binding [3]: binds weakly | binding [4]: binds | binding [5]: binds
B2: zinc finger RANBP2-type containing 3 (ZRANB3), endogenous (protein, UniProt Q5FWF4 1-1079)
chain: MPRVHNIKKSLTPHISCVTNESDNLLDFLPDRLRAKLLPFQKDGIIFALKRNGRCMVADEMGLGKTIQAIGITYFYKEEWPLLIVVPSSLRYPWTEEIEKWIPELSPEEINVIQNKTDVRRMSTSKVTVLGYGLLTADAKTLIDALNNQNFKVVIVDESHYMKSRNATRSRILLPIVQKARRAILLTGTPALGRPEELFMQIEALFPQKFGRWTDYAKRYCNAHIRYFGKRPQWDCRGASNLNELHQLLSDIMIRRLKTEVLTQLPPKVRQRIPFDLPSAAAKELNTSFEEWEKIMRTPNSGAMETVMGLITRMFKQTAIAKAGAVKDYIKMMLQNDSLKFLVFAHHLSMLQACTEAVIENKTRYIRIDGSVSSSERIHLVNQFQKDPDTRVAILSIQAAGQGLTFTAASHVVFAELYWDPGHIKQAEDRAHRIGQCSSVNIHYLIANGTLDTLMWGMLNRKAQVTGSTLNGRKEKIQAEEGDKEKWDFLQFAEAWTPNDSSEELRKEALFTHFEKEKQHDIRSFFVPQPKKRQLMTSCDESKRFREENTVVSSDPTKTAARDIIDYESDVEPETKRLKLAASEDHCSPSEETPSQSKQIRTPLVESVQEAKAQLTTPAFPVEGWQCSLCTYINNSELPYCEMCETPQGSAVMQIDSLNHIQDKNEKDDSQKDTSKKVQTISDCEKQALAQSEPGQLADSKEETPKIEKEDGLTSQPGNEQWKSSDTLPVYDTLMFCASRNTDRIHIYTKDGKQMSCNFIPLDIKLDLWEDLPASFQLKQYRSLILRFVREWSSLTAMKQRIIRKSGQLFCSPILALEEITKQQTKQNCTKRYITKEDVAVASMDKVKNVGGHVRLITKESRPRDPFTKKLLEDGACVPFLNPYTVQADLTVKPSTSKGYLQAVDNEGNPLCLRCQQPTCQTKQACKANSWDSRFCSLKCQEEFWIRSNNSYLRAKVFETEHGVCQLCNVNAQELFLRLRDAPKSQRKNLLYATWTSKLPLEQLNEMIRNPGEGHFWQVDHIKPVYGGGGQCSLDNLQTLCTVCHKERTARQAKERSQVRRQSLASKHGSDITRFLVKK
